The list does not hold the whole screen: it gathers tests that were run many times, whatever their T/C, doses with no T/C, and many T/C values between a quarter and a half above the control. Further doses and runs are listed elsewhere. T/C is the treated group as % of the vehicle group. Schedule codes are those of the source, taken here to give the interval after Q, in days (D) or hours (H), and the number of doses after X. Some T/C values carry the count of animals alive at the toxicity check (mostly the fifth day); where none is given, no animal had died by that day. Some doses were run more than once; the values are given in rising order. Some doses have a count of surviving animals in place of a T/C: the source files T/C as zero there, which appears to mark a toxic dose or a test without result, not a measured value. Survivors were counted at the toxicity check, usually on the fifth day, unless a day is given; later deaths do not show.
Tested on: BDF1 mice, colon carcinoma 38 sc, T/C %
Assay: NCI In Vivo Anticancer Drug Screen. Data for tumor model Colon Carcinoma 38 (subcutaneous) in B6D2F1 (BDF1) mice
Settings: for T/C: evaluated on day 20
In short: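 Compound antitumor activity was assessed in mice carrying transplantable tumors. Survival or tumor size was recorded, and each value is the treated-group measurement divided by that of the vehicle-treated control group.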

[1] = T/C endpoint: median tumor weight (est.), dose: 6.25 mg/kg/injection, schedule: Q07DX002 (ip), vehicle: Klucel (hydroxypropylcellulose) (HPC), higher T/C = larger tumour
[2] = T/C endpoint: median tumor weight (est.), dose: 12.5 mg/kg/injection, schedule: Q07DX002 (ip), vehicle: Klucel (hydroxypropylcellulose) (HPC), higher T/C = larger tumour
[3] = T/C endpoint: median tumor weight (est.), dose: 50.0 mg/kg/injection, schedule: Q07DX002 (ip), vehicle: Klucel (hydroxypropylcellulose) (HPC), higher T/C = larger tumour
[4] = T/C endpoint: median tumor weight (est.), dose: 100.0 mg/kg/injection, schedule: Q07DX002 (ip), vehicle: Klucel (hydroxypropylcellulose) (HPC), higher T/C = larger tumour
[5] = T/C endpoint: median tumor weight (est.), dose: 400.0 mg/kg/injection, schedule: Q07DX002 (ip), vehicle: suspension in saline, higher T/C = larger tumour

C=C(OP(=O)(OC)OC)Sc1ccccc1C
survivor count (T/C endpoint: median tumor weight (est.), dose: 1.5 mg/kg/injection, schedule: Q07DX002 (ip), vehicle: Klucel (hydroxypropylcellulose) (HPC), higher T/C = larger tumour): 6 of 10 on day 20
survivor count (T/C endpoint: median tumor weight (est.), dose: 3.0 mg/kg/injection, schedule: Q07DX002 (ip), vehicle: Klucel (hydroxypropylcellulose) (HPC), higher T/C = larger tumour): 0 of 10 on day 20
survivor count (T/C endpoint: median tumor weight (est.), dose: 3.12 mg/kg/injection, schedule: Q07DX002 (ip), vehicle: Klucel (hydroxypropylcellulose) (HPC), higher T/C = larger tumour): 0 of 10 on day 20
survivor count (T/C endpoint: median tumor weight (est.), dose: 6.0 mg/kg/injection, schedule: Q07DX002 (ip), vehicle: Klucel (hydroxypropylcellulose) (HPC), higher T/C = larger tumour): 0 of 10 on day 20
survivor count [1]: 0 of 10 on day 20
survivor count (T/C endpoint: median tumor weight (est.), dose: 12.0 mg/kg/injection, schedule: Q07DX002 (ip), vehicle: Klucel (hydroxypropylcellulose) (HPC), higher T/C = larger tumour): 0 of 10 on day 20
survivor count [2]: 0 of 10 on day 20
survivor count (T/C endpoint: median tumor weight (est.), dose: 24.0 mg/kg/injection, schedule: Q07DX002 (ip), vehicle: Klucel (hydroxypropylcellulose) (HPC), higher T/C = larger tumour): 0 of 10 on day 20
survivor count (T/C endpoint: median tumor weight (est.), dose: 25.0 mg/kg/injection, schedule: Q07DX002 (ip), vehicle: Klucel (hydroxypropylcellulose) (HPC), higher T/C = larger tumour): 0 of 10 on day 20
survivor count [3]: 0 of 10 on day 20
survivor count [4]: 0 of 10 on day 20
survivor count (T/C endpoint: median tumor weight (est.), dose: 200.0 mg/kg/injection, schedule: Q07DX002 (ip), vehicle: Klucel (hydroxypropylcellulose) (HPC), higher T/C = larger tumour): 0 of 10 on day 20
survivor count (T/C endpoint: median tumor weight (est.), dose: 400.0 mg/kg/injection, schedule: Q07DX002 (ip), vehicle: Klucel (hydroxypropylcellulose) (HPC), higher T/C = larger tumour): 0 of 10 on day 20

O=C(C#Cc1ccccc1)c1ccccc1
T/C [1]: 126 % of control
survivor count [3]: 6 of 10 on day 20
survivor count [4]: 0 of 10 on day 20
survivor count (T/C endpoint: median tumor weight (est.), dose: 100.0 mg/kg/injection, schedule: Q07DX002 (ip), vehicle: water, higher T/C = larger tumour): 2 of 10 on day 20

O=C1CN(CN2CCOCC2)C(=O)CN1CN1CCOCC1
T/C (T/C endpoint: median tumor weight (est.), dose: 12.5 mg/kg/injection, schedule: Q07DX002 (ip), vehicle: saline, higher T/C = larger tumour): 128 % of control
T/C (T/C endpoint: median tumor weight (est.), dose: 100.0 mg/kg/injection, schedule: Q07DX002 (ip), vehicle: saline, higher T/C = larger tumour): 130 % of control

c1cc(OCC2CO2)ccc1OCC1CO1 (centres undefined)
T/C (T/C endpoint: median tumor weight (est.), dose: 25.0 mg/kg/injection, schedule: Q07DX002 (ip), vehicle: saline with Tween-80, higher T/C = larger tumour): 147 % of control
survivor count (T/C endpoint: median tumor weight (est.), dose: 800.0 mg/kg/injection, schedule: Q07DX002 (ip), vehicle: Klucel (hydroxypropylcellulose) (HPC), higher T/C = larger tumour): 0 of 10 on day 20

Cc1[nH]c(=O)[nH]c(=O)c1N(CCF)CCCl
T/C (T/C endpoint: median tumor weight (est.), dose: 8.0 mg/kg/injection, schedule: Q07DX002 (ip), vehicle: Klucel (hydroxypropylcellulose) (HPC), higher T/C = larger tumour): 138 % of control
T/C (T/C endpoint: median tumor weight (est.), dose: 8.0 mg/kg/injection, schedule: Q07DX003 (ip), vehicle: Klucel (hydroxypropylcellulose) (HPC), higher T/C = larger tumour): 38 [9 of 10 alive], 104, 106, 162, 244 % of control
T/C (T/C endpoint: median tumor weight (est.), dose: 16.0 mg/kg/injection, schedule: Q07DX002 (ip), vehicle: Klucel (hydroxypropylcellulose) (HPC), higher T/C = larger tumour): 133 % of control
T/C (T/C endpoint: median tumor weight (est.), dose: 16.0 mg/kg/injection, schedule: Q07DX003 (ip), vehicle: Klucel (hydroxypropylcellulose) (HPC), higher T/C = larger tumour): 28, 65, 76, 126, 231 % of control
T/C (T/C endpoint: median tumor weight (est.), dose: 32.0 mg/kg/injection, schedule: Q07DX003 (ip), vehicle: Klucel (hydroxypropylcellulose) (HPC), higher T/C = larger tumour): 32, 36, 49 [9 of 10 alive], 60, 68 % of control [9 of 10 alive]
survivor count (T/C endpoint: median tumor weight (est.), dose: 64.0 mg/kg/injection, schedule: Q07DX002 (ip), vehicle: Klucel (hydroxypropylcellulose) (HPC), higher T/C = larger tumour): 1 of 10 and 5 of 10
survivor count (T/C endpoint: median tumor weight (est.), dose: 64.0 mg/kg/injection, schedule: Q07DX003 (ip), vehicle: Klucel (hydroxypropylcellulose) (HPC), higher T/C = larger tumour): 1 of 10

CNC(=O)OCc1c(COC(=O)NC)c(C)n(-c2ccc(OC)cc2)c1C
T/C [1]: 134 % of control
T/C [2]: 125 % of control
T/C [3]: 128 % of control

CC1(C)CC1(Br)Br
T/C (T/C endpoint: median tumor weight (est.), dose: 12.5 mg/kg/injection, schedule: Q07DX002 (ip), vehicle: saline with Tween-80, higher T/C = larger tumour): 125 % of control
T/C (T/C endpoint: median tumor weight (est.), dose: 50.0 mg/kg/injection, schedule: Q07DX002 (ip), vehicle: saline with Tween-80, higher T/C = larger tumour): 147 % of control
T/C (T/C endpoint: median tumor weight (est.), dose: 200.0 mg/kg/injection, schedule: Q07DX002 (ip), vehicle: saline with Tween-80, higher T/C = larger tumour): 134 % of control
survivor count (T/C endpoint: median tumor weight (est.), dose: 400.0 mg/kg/injection, schedule: Q07DX002 (ip), vehicle: saline with Tween-80, higher T/C = larger tumour): 5 of 10 on day 20

CCCCCCC/C=C/C(=O)OC1C(OC2C(OC(CCCCCCC)CC(=O)OC(CCCCCCC)CC(=O)O)OC(C)C(O)C2O)OC(C)C(O)C1O (centres undefined)
T/C (T/C endpoint: median tumor weight (est.), dose: 14.0 mg/kg/injection, schedule: Q07DX002 (ip), vehicle: Klucel (hydroxypropylcellulose) (HPC), higher T/C = larger tumour): 140 % of control
T/C (T/C endpoint: median tumor weight (est.), dose: 28.0 mg/kg/injection, schedule: Q07DX002 (ip), vehicle: Klucel (hydroxypropylcellulose) (HPC), higher T/C = larger tumour): 129 and 130 % of control
T/C (T/C endpoint: median tumor weight (est.), dose: 112.0 mg/kg/injection, schedule: Q07DX002 (ip), vehicle: Klucel (hydroxypropylcellulose) (HPC), higher T/C = larger tumour): 126 % of control
survivor count (T/C endpoint: median tumor weight (est.), dose: 225.0 mg/kg/injection, schedule: Q07DX002 (ip), vehicle: Klucel (hydroxypropylcellulose) (HPC), higher T/C = larger tumour): 1 of 10 on day 20
survivor count (T/C endpoint: median tumor weight (est.), dose: 450.0 mg/kg/injection, schedule: Q07DX002 (ip), vehicle: Klucel (hydroxypropylcellulose) (HPC), higher T/C = larger tumour): 0 of 10 on day 20

[Cl][Pt+2][Cl].[NH-]CC1(C[NH-])CCC1
survivor count (T/C endpoint: median tumor weight (est.), dose: 25.0 mg/kg/injection, schedule: Q07DX002 (ip), vehicle: suspension in saline, higher T/C = larger tumour): 3 of 10 on day 20
survivor count (T/C endpoint: median tumor weight (est.), dose: 50.0 mg/kg/injection, schedule: Q07DX002 (ip), vehicle: suspension in saline, higher T/C = larger tumour): 0 of 10 on day 20
survivor count (T/C endpoint: median tumor weight (est.), dose: 100.0 mg/kg/injection, schedule: Q07DX002 (ip), vehicle: suspension in saline, higher T/C = larger tumour): 1 of 10 on day 20
survivor count (T/C endpoint: median tumor weight (est.), dose: 200.0 mg/kg/injection, schedule: Q07DX002 (ip), vehicle: suspension in saline, higher T/C = larger tumour): 0 of 10 on day 20
survivor count [5]: 0 of 10 on day 20

O=C(O)C(CSC(c1ccccc1)(c1ccccc1)c1ccccc1)N=Cc1cccs1 (centres undefined)
survivor count (T/C endpoint: median tumor weight (est.), dose: 400.0 mg/kg/injection, schedule: Q07DX002 (ip), vehicle: saline, higher T/C = larger tumour): 4 of 10 on day 20
survivor count [5]: 4 of 10 on day 20
survivor count (T/C endpoint: median tumor weight (est.), dose: 800.0 mg/kg/injection, schedule: Q07DX002 (ip), vehicle: saline, higher T/C = larger tumour): 1 of 10 on day 20
survivor count (T/C endpoint: median tumor weight (est.), dose: 800.0 mg/kg/injection, schedule: Q07DX002 (ip), vehicle: suspension in saline, higher T/C = larger tumour): 0 of 10 on day 20

N#CC(C#N)=C/C=C/c1cccc([N+](=O)[O-])c1
T/C (T/C endpoint: median tumor weight (est.), dose: 3.12 mg/kg/injection, schedule: Q07DX003 (ip), vehicle: Klucel (hydroxypropylcellulose) (HPC), higher T/C = larger tumour): 142 % of control

Oc1cc2c3c(c1)c1cc4c(cc1c[n+]3CC2)OCO4
T/C (T/C endpoint: median tumor weight (est.), dose: 3.12 mg/kg/injection, schedule: Q07DX002 (ip), vehicle: water, higher T/C = larger tumour): 127 % of control
T/C (T/C endpoint: median tumor weight (est.), dose: 25.0 mg/kg/injection, schedule: Q07DX002 (ip), vehicle: water, higher T/C = larger tumour): 125 % of control

Nc1ncnc2c1ncn2C1OC(COS(N)(=O)=O)C(O)C1O (centres undefined)
survivor count (T/C endpoint: median survival time, dose: 1.0 mg/kg/injection, schedule: Q02DX004 (sc), vehicle: saline, higher T/C = longer survival): 0 of 3 on day 22
survivor count (T/C endpoint: median survival time, dose: 2.0 mg/kg/injection, schedule: Q02DX004 (sc), vehicle: saline, higher T/C = longer survival): 0 of 3 on day 22
survivor count (T/C endpoint: median survival time, dose: 4.0 mg/kg/injection, schedule: Q02DX004 (sc), vehicle: saline, higher T/C = longer survival): 0 of 3 on day 22

O=C(O)CC(NC(=O)CP(=O)(O)O)C(=O)O (centres undefined)
T/C (T/C endpoint: median tumor weight (est.), dose: 25.0 mg/kg/injection, schedule: Q07DX003 (ip), vehicle: saline, higher T/C = larger tumour): 131 % of control
T/C (T/C endpoint: median tumor weight (est.), dose: 100.0 mg/kg/injection, schedule: Q07DX003 (ip), vehicle: saline, higher T/C = larger tumour): 134 % of control
survivor count (T/C endpoint: median tumor weight (est.), dose: 265.0 mg/kg/injection, schedule: Q01DX009 (ip), vehicle: saline, higher T/C = larger tumour): 5 of 10
survivor count (T/C endpoint: median tumor weight (est.), dose: 833.0 mg/kg/injection, schedule: Q04DX004 (ip), vehicle: saline, higher T/C = larger tumour): 0 of 4

Reference: PubChem BioAssay AID212 (DTP/NCI, 2004)
